# Measurements reported in the supplement of paper PMC8728848.
# The list shows a part of the results.
# B1: CM2 (Cordyceps militaris) (protein)
# chain: MEIAEQNVGKSCAIVNLIPPKEGSNIWTAKQVTIARNLPPNRGTGRHQIDWSFGPVKVTGYVDTTNWEIGVTVSIMGIDLGTVYGNLRDGVVLNVDLFLAKGQVRFYLKNGNEVWVHLSVEIRFDGKFEGDYKIITV
# Tests used:
# Assay in all cases: glycan array binding signal (z-score within array); higher = stronger binding
# Details in all cases: glycan notation: IUPAC condensed, linker removed
# [1] = target: Neu5Ac(a2-3)Gal(b1-3)GlcNAc6S
# Outline: (§1)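 The binding signal is a Z-score computed within each array and averaged over linkers. Arrays of the same protein sequence at different concentrations or buffers were also averaged together. Data originate from 3228 arrays in the Consortium for Functional Glycomics database, kept only where the protein sequence was available.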
# [2] = target: Neu5Ac(a2-3)Gal(b1-3)[Fuc(a1-4)]GlcNAc
# Outline: as §1
# [3] = target: Neu5Ac(a2-3)Gal(b1-3)[Fuc(a1-4)]GlcNAc(b1-3)Gal(b1-3)[Fuc(a1-4)]GlcNAc
# Outline: as §1
# [4] = target: Neu5Ac(a2-3)Gal(b1-3)[Fuc(a1-4)]GlcNAc(b1-3)Gal(b1-4)[Fuc(a1-3)]GlcNAc
# Outline: as §1
# [5] = target: Neu5Ac(a2-3)Gal(b1-3)[GlcNAc(b1-6)]GalNAc
# Outline: as §1
# [6] = target: Neu5Ac(a2-3)Gal(b1-3)[Neu5Ac(a2-6)]GalNAc
# Outline: as §1
# [7] = target: Neu5Ac(a2-3)Gal(b1-3)[Neu5Ac(a2-6)]GlcNAc(b1-3)[Fuc(a1-3)[Gal(b1-4)]GlcNAc(b1-6)]Gal(b1-4)Glc
# Outline: as §1
# [8] = target: Neu5Ac(a2-3)Gal(b1-3)]Neu5Ac(a2-3)Gal(b1-4)]GlcNAc
# Outline: as §1
# Neu5Ac(a2-3)Gal(b1-4)Glc = target: Neu5Ac(a2-3)Gal(b1-4)Glc
# Outline: as §1
# [9] = target: Neu5Ac(a2-3)Gal(b1-4)GlcNAc
# Outline: as §1
# [10] = target: Neu5Ac(a2-3)Gal(b1-4)GlcNAc(b1-2)Man
# Outline: as §1
# [11] = target: Neu5Ac(a2-3)Gal(b1-4)GlcNAc(b1-2)Man(a1-3)[GlcNAc(b1-4)][Neu5Ac(a2-3)Gal(b1-4)GlcNAc(b1-2)Man(a1-6)]Man(b1-4)GlcNAc(b1-4)GlcNAc
# Outline: as §1
# [12] = target: Neu5Ac(a2-3)Gal(b1-4)GlcNAc(b1-2)Man(a1-3)[Neu5Ac(a2-3)Gal(b1-4)GlcNAc(b1-2)Man(a1-6)]Man(b1-4)GlcNAc(b1-4)GlcNAc
# Outline: as §1
# [13] = target: Neu5Ac(a2-3)Gal(b1-4)GlcNAc(b1-2)Man(a1-3)[Neu5Ac(a2-3)Gal(b1-4)GlcNAc(b1-2)Man(a1-6)]Man(b1-4)GlcNAc(b1-4)[Fuc(a1-6)]GlcNAc
# Outline: as §1
# [14] = target: Neu5Ac(a2-3)Gal(b1-4)GlcNAc(b1-2)Man(a1-3)[Neu5Ac(a2-6)Gal(b1-4)GlcNAc(b1-2)Man(a1-6)]Man(b1-4)GlcNAc(b1-4)GlcNAc
# Outline: as §1
# [15] = target: Neu5Ac(a2-3)Gal(b1-4)GlcNAc(b1-2)[Neu5Ac(a2-3)Gal(b1-4)GlcNAc(b1-4)]Man(a1-3)[GlcNAc(b1-4)][Neu5Ac(a2-3)Gal(b1-4)GlcNAc(b1-2)[Neu5Ac(a2-3)Gal(b1-4)GlcNAc(b1-6)]Man(a1-6)]Man(b1-4)GlcNAc(b1-4)GlcNAc
# Outline: as §1
# [16] = target: Neu5Ac(a2-3)Gal(b1-4)GlcNAc(b1-2)[Neu5Ac(a2-3)Gal(b1-4)GlcNAc(b1-4)]Man(a1-3)[GlcNAc(b1-4)][Neu5Ac(a2-3)Gal(b1-4)GlcNAc(b1-4)Man(a1-6)]Man(b1-4)GlcNAc(b1-4)GlcNAc
# Outline: as §1
# [17] = target: Neu5Ac(a2-3)Gal(b1-4)GlcNAc(b1-2)[Neu5Ac(a2-3)Gal(b1-4)GlcNAc(b1-6)]Man(a1-6)[Neu5Ac(a2-3)Gal(b1-4)GlcNAc(b1-2)Man(a1-3)][GlcNAc(b1-4)]Man(b1-4)GlcNAc(b1-4)GlcNAc
# Outline: as §1
# [18] = target: Neu5Ac(a2-3)Gal(b1-4)GlcNAc(b1-3)Gal
# Outline: as §1
# [19] = target: Neu5Ac(a2-3)Gal(b1-4)GlcNAc(b1-3)Gal(b1-3)GlcNAc
# Outline: as §1
# [20] = target: Neu5Ac(a2-3)Gal(b1-4)GlcNAc(b1-3)Gal(b1-4)GlcNAc
# Outline: as §1
# [21] = target: Neu5Ac(a2-3)Gal(b1-4)GlcNAc(b1-3)Gal(b1-4)GlcNAc(b1-2)Man(a1-3)[Neu5Ac(a2-3)Gal(b1-4)GlcNAc(b1-3)Gal(b1-4)GlcNAc(b1-2)Man(a1-6)]Man(b1-4)GlcNAc(b1-4)GlcNAc
# Outline: as §1
# [22] = target: Neu5Ac(a2-3)Gal(b1-4)GlcNAc(b1-3)Gal(b1-4)GlcNAc(b1-3)Gal(b1-4)GlcNAc
# Outline: as §1
# [23] = target: Neu5Ac(a2-3)Gal(b1-4)GlcNAc(b1-3)Gal(b1-4)GlcNAc(b1-3)Gal(b1-4)GlcNAc(b1-2)Man(a1-3)[Neu5Ac(a2-3)Gal(b1-4)GlcNAc(b1-3)Gal(b1-4)GlcNAc(b1-3)Gal(b1-4)GlcNAc(b1-2)Man(a1-6)]GalNAc
# Outline: as §1
# [24] = target: Neu5Ac(a2-3)Gal(b1-4)GlcNAc(b1-3)Gal(b1-4)GlcNAc(b1-3)GalNAc
# Outline: as §1
# [25] = target: Neu5Ac(a2-3)Gal(b1-4)GlcNAc(b1-3)Gal(b1-4)GlcNAc(b1-3)[Neu5Ac(a2-3)Gal(b1-4)GlcNAc(b1-3)Gal(b1-4)GlcNAc(b1-6)]GalNAc
# Outline: as §1
# [26] = target: Neu5Ac(a2-3)Gal(b1-4)GlcNAc(b1-3)Gal(b1-4)GlcNAc(b1-6)[Gal(b1-3)]GalNAc
# Outline: as §1
# [27] = target: Neu5Ac(a2-3)Gal(b1-4)GlcNAc(b1-3)Gal(b1-4)[Fuc(a1-3)]GlcNAc
# Outline: as §1
# [28] = target: Neu5Ac(a2-3)Gal(b1-4)GlcNAc(b1-3)GalNAc
# Outline: as §1
# [29] = target: Neu5Ac(a2-3)Gal(b1-4)GlcNAc(b1-3)[Neu5Ac(a2-3)Gal(b1-4)GlcNAc(b1-6)]GalNAc
# Outline: as §1
# [30] = target: Neu5Ac(a2-3)Gal(b1-4)GlcNAc(b1-6)GalNAc
# Outline: as §1
# [31] = target: Neu5Ac(a2-3)Gal(b1-4)GlcNAc(b1-6)[Gal(b1-3)]GalNAc
# Outline: as §1
# [32] = target: Neu5Ac(a2-3)Gal(b1-4)GlcNAc(b1-6)[Neu5Ac(a2-3)Gal(b1-3)]GalNAc
# Outline: as §1
# [33] = target: Neu5Ac(a2-3)Gal(b1-4)GlcNAc6S
# Outline: as §1
# [34] = target: Neu5Ac(a2-3)Gal(b1-4)[Fuc(a1-3)]GlcNAc
# Outline: as §1
# [35] = target: Neu5Ac(a2-3)Gal(b1-4)[Fuc(a1-3)]GlcNAc(b1-2)Man
# Outline: as §1
# [36] = target: Neu5Ac(a2-3)Gal(b1-4)[Fuc(a1-3)]GlcNAc(b1-3)Gal
# Outline: as §1
# [37] = target: Neu5Ac(a2-3)Gal(b1-4)[Fuc(a1-3)]GlcNAc(b1-3)Gal(b1-4)GlcNAc
# Outline: as §1
# [38] = target: Neu5Ac(a2-3)Gal(b1-4)[Fuc(a1-3)]GlcNAc(b1-3)Gal(b1-4)[Fuc(a1-3)]GlcNAc(b1-3)Gal(b1-4)[Fuc(a1-3)]GlcNAc
# Outline: as §1
# [39] = target: Neu5Ac(a2-3)Gal(b1-4)[Fuc(a1-3)]GlcNAc(b1-3)GalNAc
# Outline: as §1
# [40] = target: Neu5Ac(a2-3)Gal(b1-4)[Fuc(a1-3)]GlcNAc(b1-6)[Gal(b1-3)]GalNAc
# Outline: as §1
# [41] = target: Neu5Ac(a2-3)Gal(b1-4)[Fuc(a1-3)]GlcNAc(b1-6)[Neu5Ac(a2-3)Gal(b1-3)]GalNAc
# Outline: as §1
# [42] = target: Neu5Ac(a2-3)Gal(b1-4)[Fuc(a1-3)]GlcNAc6S
# Outline: as §1
# [43] = target: Neu5Ac(a2-3)Gal6S(b1-4)GlcNAc
# Outline: as §1
# [44] = target: Neu5Ac(a2-3)Gal6S(b1-4)[Fuc(a1-3)]GlcNAc
# Outline: as §1
binder,measurement,setting,value
B1,glycan array binding signal (z-score),[1],-0.532
same,glycan array binding signal (z-score),[2],-0.052
same,glycan array binding signal (z-score),[3],0.659
same,glycan array binding signal (z-score),[4],-0.978
same,glycan array binding signal (z-score),[5],-1.74
same,glycan array binding signal (z-score),[6],-1.17
same,glycan array binding signal (z-score),[7],-0.461
same,glycan array binding signal (z-score),[8],3.98
same,glycan array binding signal (z-score),Neu5Ac(a2-3)Gal(b1-4)Glc,0.479
same,glycan array binding signal (z-score),[9],0.924
same,glycan array binding signal (z-score),[10],0.955
same,glycan array binding signal (z-score),[11],-0.303
same,glycan array binding signal (z-score),[12],-0.387
same,glycan array binding signal (z-score),[13],0.099
same,glycan array binding signal (z-score),[14],0.37
same,glycan array binding signal (z-score),[15],-0.877
same,glycan array binding signal (z-score),[16],0.058
same,glycan array binding signal (z-score),[17],-0.823
same,glycan array binding signal (z-score),[18],-1.46
same,glycan array binding signal (z-score),[19],-0.152
same,glycan array binding signal (z-score),[20],-1.2
same,glycan array binding signal (z-score),[21],1.55
same,glycan array binding signal (z-score),[22],-0.646
same,glycan array binding signal (z-score),[23],1.78
same,glycan array binding signal (z-score),[24],3.11
same,glycan array binding signal (z-score),[25],0.196
same,glycan array binding signal (z-score),[26],-1.25
same,glycan array binding signal (z-score),[27],0.969
same,glycan array binding signal (z-score),[28],-0.471
same,glycan array binding signal (z-score),[29],1.17
same,glycan array binding signal (z-score),[30],0.704
same,glycan array binding signal (z-score),[31],-0.406
same,glycan array binding signal (z-score),[32],-0.229
same,glycan array binding signal (z-score),[33],-0.128
same,glycan array binding signal (z-score),[34],0.203
same,glycan array binding signal (z-score),[35],-1.33
same,glycan array binding signal (z-score),[36],0.036
same,glycan array binding signal (z-score),[37],0.43
same,glycan array binding signal (z-score),[38],0.031
same,glycan array binding signal (z-score),[39],-0.166
same,glycan array binding signal (z-score),[40],-0.121
same,glycan array binding signal (z-score),[41],-0.027
same,glycan array binding signal (z-score),[42],-0.494
same,glycan array binding signal (z-score),[43],-0.419
same,glycan array binding signal (z-score),[44],-0.639

# Random excerpt: 2 records from the list, in no set order.
binder,measurement,setting,value
B1,glycan array binding signal (z-score),[36],0.036
same,glycan array binding signal (z-score),[32],-0.229

# A stretch of the results above, for reference:
binder,measurement,setting,value
B1,glycan array binding signal (z-score),[3],0.659
same,glycan array binding signal (z-score),[4],-0.978
